Results as given in patent US9888688B2, “Tetrazolinone compounds and applications thereof” (Sumitomo Chemical Company, Limited, priority 2013, dated 2018).
Read-outs that look alike come from different tables or passages of the source. Some entries share one result that the patent states for a list of compounds.

What was measured:
[1] = tested on: wheat rust fungus (Puccinia recondita); experiment: Wheat rust control test, foliar spray on wheat (Test Examples 3, 13, 14); assay type: in vivo; settings: wheat SHIROGANE, inoculated 5 days after spraying
[2] = tested on: rice blast fungus (Magnaporthe grisea); assay type: in vivo; settings: rice NIHONBARE, 6 days

| Compound | area of lesion spots relative to that on an untreated plant ([1]; 200 ppm foliar spray) [%] | lesion area with respect to the lesion area on the non-treated plant ([2]; 200 ppm foliar spray) [%] | other results |
| --- | --- | --- | --- |
| CCc1cccc(-n2nnn(C)c2=O)c1COc1ccc(-c2ncccc2Cl)cc1C [Present Compound 2] | ≤ 30 | – | – |
| Cc1cc(-c2ccccn2)ccc1OCc1c(C)cccc1-n1nnn(C)c1=O [Present Compound 5] | ≤ 30 | – | – |
| COc1cccc(-n2nnn(C)c2=O)c1COc1ccc(-c2ncccc2C)cc1C [Present Compound 11] | ≤ 30 | – | – |
| Cc1cc(-c2ncccc2C)ccc1OCc1c(C)cccc1-n1nnn(C)c1=O [Present Compound 12] | ≤ 30 | – | – |
| Cc1cc(-c2ncccc2Cl)ccc1OCc1c(C)cccc1-n1nnn(C)c1=O [Present Compound 23] | ≤ 30 | – | – |
| COc1cccc(-n2nnn(C)c2=O)c1COc1ccc(-c2ccc(Cl)cn2)cc1C [Present Compound 26] | ≤ 30 | – | – |
| Cc1cc(-c2ccc(Cl)cn2)ccc1OCc1c(C2CC2)cccc1-n1nnn(C)c1=O [Present Compound 28] | – | ≤ 30 | – |
| CCOc1cccc(-n2nnn(C)c2=O)c1COc1ccc(-c2ccc(Cl)cn2)cc1C [Present Compound 29] | – | – | lesion area with respect to the lesion area on the non-treated plant ([2]; 500 ppm foliar spray): ≤ 30% |
| Cc1ccc(-c2ccc(OCc3c(Cl)cccc3-n3nnn(C)c3=O)c(C)c2)nc1 [Present Compound 30] | – | ≤ 30 | – |
| Cc1ccc(-c2ccc(OCc3ccccc3-n3nnn(C)c3=O)c(C)c2)nc1 [Present Compound 32] | – | ≤ 30 | – |
| Cc1cc(-c2cccc(C(F)(F)F)n2)ccc1OCc1c(C2CC2)cccc1-n1nnn(C)c1=O [Present Compound 36] | ≤ 30 | – | area of lesion spots relative to that on an untreated plant ([1]; 500 ppm foliar spray): ≤ 30% |
| Cc1cc(-c2cccc(Cl)n2)ccc1OCc1c(C)cccc1-n1nnn(C)c1=O [Present Compound 37] | – | ≤ 30 | lesion area with respect to the lesion area on the non-treated plant ([2]; 500 ppm foliar spray): ≤ 30% |
| CCOc1cccc(-n2nnn(C)c2=O)c1COc1ccc(-c2cccc(Cl)n2)cc1C [Present Compound 41] | – | ≤ 30 | – |
| Cc1cccc(-c2ccc(OCc3ccccc3-n3nnn(C)c3=O)c(C)c2)n1 [Present Compound 50] | ≤ 30 | – | area of lesion spots relative to that on an untreated plant ([1]; 500 ppm foliar spray): ≤ 30% |
| Cc1cccc(-c2ccc(OCc3c(C)cccc3-n3nnn(C)c3=O)c(F)c2)n1 [Present Compound 58] | – | ≤ 30 | – |
| Cc1cccc(-c2cc(C)c(OCc3c(C)cccc3-n3nnn(C)c3=O)c(C)c2)n1 [Present Compound 60] | ≤ 30 | – | – |
| COc1cccc(-n2nnn(C)c2=O)c1COc1ccc(-c2cccnc2)cc1C [Present Compound 65] | – | ≤ 30 | – |
| Cc1cc(-c2cccnc2C)ccc1OCc1c(C)cccc1-n1nnn(C)c1=O [Present Compound 67] | ≤ 30 | – | – |
| Cc1cc(-c2cnccc2Cl)ccc1OCc1c(C)cccc1-n1nnn(C)c1=O [Present Compound 69] | ≤ 30 | – | – |
| COc1cccc(-n2nnn(C)c2=O)c1COc1ccc(-c2cnccc2Cl)cc1C [Present Compound 70] | ≤ 30 | – | – |
| Cc1ccc(-c2ccc(OCc3ccccc3-n3nnn(C)c3=O)c(C)c2)cn1 [Present Compound 75] | – | ≤ 30 | – |
| Cc1nccc(-c2ccc(OCc3c(C)cccc3-n3nnn(C)c3=O)c(C)c2)n1 [Present Compound 77] | – | ≤ 30 | – |

| Compound | area of lesion spots relative to that on an untreated plant ([1]; 200 ppm foliar spray) [%] | lesion area with respect to the lesion area on the non-treated plant ([2]; 200 ppm foliar spray) [%] | other results |
| --- | --- | --- | --- |
| COc1cccc(-n2nnn(C)c2=O)c1COc1ccc(-c2ccnc(C)n2)cc1C [Present Compound 78] | ≤ 30 | – | – |
| Cc1cc(-c2ncccn2)ccc1OCc1c(Cl)cccc1-n1nnn(C)c1=O [Present Compound 86] | – | ≤ 30 | – |
| Cc1cc(-c2cncnc2)ccc1OCc1c(C)cccc1-n1nnn(C)c1=O [Present Compound 89] | – | ≤ 30 | – |
| CCOc1cccc(-n2nnn(C)c2=O)c1COc1ccc(-c2nccc(C)n2)cc1C [Present Compound 94] | ≤ 30 | – | – |
| Cc1ccnc(-c2ccc(OCc3c(Cl)cccc3-n3nnn(C)c3=O)c(C)c2)n1 [Present Compound 96] | – | ≤ 30 | – |
| C#CCOc1ccc(-c2ccc(OCc3c(C)cccc3-n3nnn(C)c3=O)c(C)c2)nn1 [Present Compound 104, 1-{3-methyl-2-[2-methyl-4-(6-propargyloxypyridazin-3-yl)-phenoxymethyl]-phenyl}-4-methyl-1,4-dihydrotetrazol-5-one] | – | – | area of lesion spots relative to that on an untreated plant ([1]; 50 ppm foliar spray): ≤ 30% |
| Cc1cc(-c2cccnc2)ccc1OCc1c(C)cccc1-n1nnn(C)c1=O [Present Compound 106] | – | ≤ 30 | – |
| Cc1cc(-c2ccnc(Cl)c2)ccc1OCc1c(C)cccc1-n1nnn(C)c1=O [Present Compound 107] | – | ≤ 30 | – |
| Cc1cc(-c2cncc(Cl)c2)ccc1OCc1c(C)cccc1-n1nnn(C)c1=O [Present Compound 110] | ≤ 30 | – | – |
| Cc1cncc(-c2ccc(OCc3c(C)cccc3-n3nnn(C)c3=O)c(C)c2)c1 [Present Compound 112] | ≤ 30 | – | – |
| Cc1cc(-c2ccc(OCc3c(C)cccc3-n3nnn(C)c3=O)c(C)c2)ccn1 [Present Compound 113] | ≤ 30 | – | – |
| Cc1cc(-c2cccc(C#N)n2)ccc1OCc1c(C2CC2)cccc1-n1nnn(C)c1=O [Present Compound 116] | ≤ 30 | – | – |
| Cc1cc(-c2cccc(C#N)n2)ccc1OCc1ccccc1-n1nnn(C)c1=O [Present Compound 117] | – | – | lesion area with respect to the lesion area on the non-treated plant ([2]; 500 ppm foliar spray): ≤ 30% |
| Cc1cc(-c2cccc(C#N)n2)ccc1OCc1c(Cl)cccc1-n1nnn(C)c1=O [Present Compound 118] | – | – | lesion area with respect to the lesion area on the non-treated plant ([2]; 500 ppm foliar spray): ≤ 30% |
| Cc1cc(-c2cc(C#N)ccn2)ccc1OCc1c(C)cccc1-n1nnn(C)c1=O [Present Compound 119] | – | ≤ 30 | lesion area with respect to the lesion area on the non-treated plant ([2]; 500 ppm foliar spray): ≤ 30% |
| Cc1cc(-c2ccc(C#N)cn2)ccc1OCc1c(C)cccc1-n1nnn(C)c1=O [Present Compound 120] | – | ≤ 30 | – |
| Cc1cccc(-c2ccc(OCc3ccccc3-n3nnn(C)c3=O)c(C(F)(F)F)c2)n1 [Present Compound 127] | – | ≤ 30 | – |
| CCc1cccc(-c2ccc(OCc3ccccc3-n3nnn(C)c3=O)c(C(F)(F)F)c2)n1 [Present Compound 130] | – | ≤ 30 | – |
| Cc1ccnc(-c2ccc(OCc3ccccc3-n3nnn(C)c3=O)c(C(F)(F)F)c2)n1 [Present Compound 137] | – | ≤ 30 | – |
| Cc1cc(OCc2c(C)cccc2-n2nnn(C)c2=O)c(Cl)cc1-c1ccc(C#N)nc1 [Present Compound 198] | – | ≤ 30 | – |
| Cc1cc(-c2ccccn2)c(Cl)cc1OCc1ccccc1-n1nnn(C)c1=O [Present Compound 214] | – | ≤ 30 | – |
